Taken from: PubChem BioAssay AID1259254 (NCATS, 2017)
The deposit covers about 59,000 reagents; below is a part drawn at random. About 1,550 of all reagents (2.6%) were called active. 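G2 share is only a proxy for re-replication; each gene was hit by three separate siRNAs, and active genes were retested.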 Raw values are not corrected between plates. The numbers tell different reagents against one gene apart. The record does not give: the amount of reagent.

Aim: 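Genome-wide screen for genes that prevent DNA re-replication in cancer cells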 (primary screen)
Cells: human HCT116 colorectal cancer cells
Reagents: single siRNA against human genes
Time to read-out: 3 days
Measurement: 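Nuclei stained with Hoechst and imaged; cell-cycle phase assigned by DNA content; G2 share scaled per plate, non-targeting siRNA 0%, GMNN siRNA 100%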
Scale: G2 robust z-score and G2 cells, % of GMNN control: higher = more G2 cells, more excess DNA replication; raw share of cells in G2: higher = larger share of cells with G2 DNA content
Hit rule: 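An siRNA counts as active if its G2 robust z-score lies at least 5 MADs above the screen median; here such calls match roughly 38% of GMNN control or more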

no.	gene symbol	siRNA no.	G2 robust z-score	G2 cells, % of GMNN control	raw share of cells in G2 (%)	activity call
1	ZNF284 (zinc finger protein 284)	1	-0.158	1.86	3.73	inactive
2	ZNF284 (zinc finger protein 284)	2	0.426	5.97	5.24	inactive
3	ZNF284 (zinc finger protein 284)	3	-0.335	0.61	3.74	inactive
4	GABRG2 (gamma-aminobutyric acid type A receptor subunit gamma2)	1	1.66	14.6	10.6	inactive
5	GABRG2 (gamma-aminobutyric acid type A receptor subunit gamma2)	2	-0.223	1.4	5.26	inactive
6	GABRG2 (gamma-aminobutyric acid type A receptor subunit gamma2)	3	-0.435	-0.0917	4.34	inactive
7	OR51T1 (olfactory receptor family 51 subfamily T member 1)	1	-0.845	-2.98	2.73	inactive
8	OR51T1 (olfactory receptor family 51 subfamily T member 1)	2	0.319	5.21	5.58	inactive
9	OR51T1 (olfactory receptor family 51 subfamily T member 1)	3	0.436	6.03	7.29	inactive
10	LRRFIP2 (LRR binding FLII interacting protein 2)	1	0.834	8.84	9.05	inactive
11	LRRFIP2 (LRR binding FLII interacting protein 2)	2	3.32	26.3	14.3	inactive
12	LRRFIP2 (LRR binding FLII interacting protein 2)	3	-0.0342	2.73	4.31	inactive
13	MIR22HG (MIR22 host gene)	1	-0.204	1.54	3.41	inactive
14	MIR22HG (MIR22 host gene)	2	-0.695	-1.92	3.27	inactive
15	MIR22HG (MIR22 host gene)	3	-0.4	0.152	3.05	inactive
16	TAF2 (TATA-box binding protein associated factor 2)	1	2.04	17.3	11.5	inactive
17	TAF2 (TATA-box binding protein associated factor 2)	2	2.04	17.3	10.5	inactive
18	TAF2 (TATA-box binding protein associated factor 2)	3	3.03	24.3	12	inactive
19	RTL5 (retrotransposon Gag like 5)	1	-1.11	-4.88	2.31	inactive
20	RTL5 (retrotransposon Gag like 5)	2	-0.152	1.9	4.09	inactive
21	RTL5 (retrotransposon Gag like 5)	3	-1.04	-4.32	2.45	inactive
22	CLRN2 (clarin 2)	1	0.139	3.95	5.14	inactive
23	CLRN2 (clarin 2)	2	-0.94	-3.65	1.96	inactive
24	CLRN2 (clarin 2)	3	-0.394	0.195	3.2	inactive
25	NUDT3 (nudix hydrolase 3)	1	-1.29	-6.11	2.81	inactive
26	NUDT3 (nudix hydrolase 3)	2	-0.401	0.143	4.35	inactive
27	NUDT3 (nudix hydrolase 3)	3	-0.299	0.86	3.76	inactive

Look-ups from the entries so far.
For “activity call”, ZNF284 (zinc finger protein 284) #3 has inactive
RTL5 (retrotransposon Gag like 5) #2, G2 robust z-score: -0.152
Result of ZNF284 (zinc finger protein 284) #1 under “G2 cells, % of GMNN control”: 1.86
TAF2 (TATA-box binding protein associated factor 2) #2, G2 cells, % of GMNN control: 17.3
For “G2 robust z-score”, OR51T1 (olfactory receptor family 51 subfamily T member 1) #3 has 0.436
Result of LRRFIP2 (LRR binding FLII interacting protein 2) #1 under “G2 cells, % of GMNN control”: 8.84

More entries:
no.	gene symbol	siRNA no.	G2 robust z-score	G2 cells, % of GMNN control	raw share of cells in G2 (%)	activity call
28	SCUBE2 (signal peptide, CUB domain and EGF like domain containing 2)	1	-1.28	-6.02	3.19	inactive
29	SCUBE2 (signal peptide, CUB domain and EGF like domain containing 2)	2	-0.409	0.0932	2.82	inactive
30	SCUBE2 (signal peptide, CUB domain and EGF like domain containing 2)	3	4.38	33.8	14.2	inactive
31	DUSP21 (dual specificity phosphatase 21)	1	0.0215	3.12	4.44	inactive
32	DUSP21 (dual specificity phosphatase 21)	2	-0.6	-1.26	4.39	inactive
33	DUSP21 (dual specificity phosphatase 21)	3	-0.67	-1.74	3.78	inactive
34	SLC6A14	1	-0.255	1.17	6.84	inactive
35	SLC6A14	2	-0.653	-1.63	3.61	inactive
36	SLC6A14	3	2.09	17.7	9.92	inactive
37	NR2F1 (nuclear receptor subfamily 2 group F member 1)	1	-0.882	-3.24	4.59	inactive
38	NR2F1 (nuclear receptor subfamily 2 group F member 1)	2	-0.873	-3.18	2.91	inactive
39	NR2F1 (nuclear receptor subfamily 2 group F member 1)	3	-0.831	-2.88	3.56	inactive
40	CNRIP1 (cannabinoid receptor interacting protein 1)	1	0.259	4.79	6.21	inactive
41	CNRIP1 (cannabinoid receptor interacting protein 1)	2	-0.567	-1.02	3.5	inactive
42	CNRIP1 (cannabinoid receptor interacting protein 1)	3	0.00579	3.01	4.35	inactive
43	MYH10 (myosin heavy chain 10)	1	-0.31	0.788	5.78	inactive
44	MYH10 (myosin heavy chain 10)	2	-1.05	-4.41	3.65	inactive
45	MYH10 (myosin heavy chain 10)	3	-0.567	-1.02	2.86	inactive
46	KLHDC10 (kelch domain containing 10)	1	1.78	15.5	11.1	inactive
47	KLHDC10 (kelch domain containing 10)	2	0.314	5.18	6.27	inactive
48	KLHDC10 (kelch domain containing 10)	3	0.689	7.82	6.1	inactive
